Data taken from ChEMBL document CHEMBL3988442, “University of Dundee, Small-Polar-MMV Screening Library” (2021).

Sequences of proteins named here, by UniProt entry; tags and fusion partners are left off. Residues count along the entry.
UniProt Q8IDJ8, 1-583: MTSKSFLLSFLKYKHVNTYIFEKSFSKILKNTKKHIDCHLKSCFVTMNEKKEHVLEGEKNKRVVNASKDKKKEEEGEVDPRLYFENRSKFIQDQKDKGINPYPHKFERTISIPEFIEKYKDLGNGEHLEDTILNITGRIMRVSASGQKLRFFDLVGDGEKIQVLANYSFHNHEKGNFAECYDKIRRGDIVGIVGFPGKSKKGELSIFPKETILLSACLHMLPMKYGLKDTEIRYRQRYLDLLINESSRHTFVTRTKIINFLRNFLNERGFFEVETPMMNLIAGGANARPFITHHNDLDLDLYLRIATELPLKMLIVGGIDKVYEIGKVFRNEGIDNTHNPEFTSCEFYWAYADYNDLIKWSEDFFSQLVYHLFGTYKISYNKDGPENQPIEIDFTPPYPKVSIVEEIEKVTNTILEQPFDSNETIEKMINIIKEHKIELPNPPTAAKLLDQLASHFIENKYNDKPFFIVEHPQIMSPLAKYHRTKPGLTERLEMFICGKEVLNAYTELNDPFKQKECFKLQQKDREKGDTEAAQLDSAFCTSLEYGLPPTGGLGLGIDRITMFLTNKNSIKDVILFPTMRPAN

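Lysine-tRNA ligase, Plasmodium falciparum 3D7 (UniProt Q8IDJ8). Enzyme assay of the cytosolic lysyl-tRNA synthetase in 384-well plates, read by luminescence. Compounds at 30 µM. Higher reads as stronger inhibition, judged from the few compounds that gave an IC50. Of about 69,000 compounds tested this way, about 49 (0.071%) reached 50% or more in at least one test.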

Each number is a percent effect as filed.
How 0% and 100% were set is not recorded. Most values in the screen are low, and negative values occur.
Compounds were drawn at random from those tested, without regard to their results.

SMILES	percent effect
CS(=O)(=O)N1CCC(C(=O)NCCCn2cc(Cl)cn2)CC1	3.066
Cc1nc(CN2CCO[C@@H]3CN(C(=O)CC4CC4)C[C@@H]3C2)cs1	3.114
COc1ccc(S(=O)(=O)Nc2cnc(N(C)C)nc2)cc1	-1.67
CCN1C(=O)CCCC12CCCN(C(=O)c1cnccn1)C2 (configuration not stated)	-0.2894
OC[C@H]1CCN(Cc2ccc3ccccc3n2)C[C@@H]1O	3.6
CCOCCN1CCN(CC(=O)N2CCC2)CC1CC (configuration not stated)	0.2893
CCS(=O)(=O)N1CCC2(CCN(CC(=O)N(C)C)C2=O)CC1	8.209
Cn1ccnc1CN1C[C@@H](CN2CCCCCC2)[C@@H](CO)C1	-1.112
CC(Cn1ccnc1)NC(=O)C1(c2cccc(Cl)c2)CC1 (configuration not stated)	-0.4613
Cc1ccc(CN2C[C@H](OCC3CCOCC3)[C@H]3COC[C@H]32)o1	2.386
Cc1ncnc(NC(CC(C)(C)C)c2cccnc2)c1C (configuration not stated)	3.383
Cc1cc(CCC(=O)N(C)C)nc(C2CCCCN2)n1 (configuration not stated)	2.745
COc1ccc(C(C)NC(=O)NCCCn2cncn2)cc1F (configuration not stated)	7.166
COC(=O)NCC(=O)NCC(C)(C)c1cccc(Br)c1	0.9888
Cc1cc(N2CCN(Cc3cn(C)nc3C)CC2)cc(C2CCNC2)n1 (configuration not stated)	-1.864
Cc1nc(C)n(C2CCCN(C(=O)c3c(C)nn4cccnc34)C2)n1 (configuration not stated)	-1.448
Cc1ccc(=O)n(Cc2csc(N(C)C3CC3)n2)n1	3.144
CC(O)CN(CC(=O)NC1CCCCC1)c1ccccc1 (configuration not stated)	2.225
Cc1ccc(-c2noc(CN3CCn4c(nnc4C4CC4)C3)n2)cc1	0.3146
Cc1c(C2CCCN(C(=O)OC(C)(C)C)C2)n2c(nc1=O)CCC2 (configuration not stated)	3.242
Cc1ncsc1C(=O)N1CCn2nc(CN3CCSCC3)cc2C1	-2.175
O=C(c1n[nH]c(=O)c2ccccc12)N1CCCC1Cn1cccn1 (configuration not stated)	-0.9923
CCc1ncc(C(=O)N(CCOC)Cc2ccccc2F)cn1	-1.477
CCN1CCCC1CNC(=O)Cc1c(C)n[nH]c1-c1ccc(F)cc1 (configuration not stated)	-1.789
O=C(O)c1nnn(-c2ccccc2F)c1-c1ccncc1	3.759
CCOCCN1C[C@@H]2CCCO[C@@H]2[C@H](NC(=O)c2cnoc2C)C1	3.744
Cc1nc(CNC(=O)Nc2ccc3c(c2)CCCC(=O)N3)sc1C	-0.2563
c1cc(CN2CCC(c3ccncc3)CC2)cc(Cn2cccn2)c1	10.36
NCC(=O)N1CCCCC1c1ccc(F)cc1 (configuration not stated)	1.487
CC(Cn1cc(Br)cn1)C(=O)Nc1ccn(C)n1 (configuration not stated)	6.078
Cc1nn(C)c(N2CCCN(C)CC2)c1CNC(=O)CC(C)(C)C	2.26
Cc1nc(C)n(CC2CCCN2Cc2cn3cc(Cl)ccc3n2)n1 (configuration not stated)	0.5969
Cc1ccc(F)c(OC2(C(=O)O)CCN(C(=O)c3ccncc3)CC2)c1	-0.6106
CCc1nc(CN(C)CC(=O)N(C)C2CC2)cs1	1.93
O=C(N1CCCC(n2cncn2)C1)C1(c2ccccc2F)CCCC1 (configuration not stated)	-0.6686
O=C(NC1CC1)C1CN(c2nc3ccccc3s2)CCN1 (configuration not stated)	3.217
CCC1CN(CC(=O)NC(C)C)CCO1 (configuration not stated)	-0.3598
O=C(c1cccc(-c2ncc[nH]2)c1)N1CC[C@H](CO)[C@@H](O)C1	2.023
CCC(=O)N1CCCc2c(cnn2C)C1	0.2419
CC(=O)NCc1nccnc1C1CCN(C(=O)c2cc[nH]n2)CC1	1.932
CSc1ncc(C(=O)N2C[C@H]3CC[C@@H]2CN(Cc2ccccc2)C3)cn1	2.376
CCN1CC(C(=O)N2CCN(c3nsc4ccccc34)CC2)CCC1=O (configuration not stated)	2.352
c1cnn(CCNCc2cnc(N3CCCC3)nc2)c1	9.096
O=S(=O)(c1ccccc1)N1CCCN(CCCn2ccnc2)CC1	4.035
CN(C)C(=O)C1CN(Cc2ccccc2)CCN(S(C)(=O)=O)C1 (configuration not stated)	5.626
FC1(F)CCN(Cc2ccccn2)CC12CCN(c1cnccn1)C2 (configuration not stated)	4.611
CCOc1ccccc1OC1CCN(C(=O)c2cnns2)CC1	0.6327
c1ccc2nc(N3CCOC(Cn4cncn4)C3)cnc2c1 (configuration not stated)	0.763
Cc1nc(COC[C@H]2CCC[C@]23CN(CC2CC2)CCO3)cs1	-2.568
COc1cccc(S(=O)(=O)CCNC2CCc3ncnn3C2)c1 (configuration not stated)	2.707

Once more, the final 5:

| SMILES | percent effect |
|---|---|
| `FC1(F)CCN(Cc2ccccn2)CC12CCN(c1cnccn1)C2` (configuration not stated) | 4.611 |
| `CCOc1ccccc1OC1CCN(C(=O)c2cnns2)CC1` | 0.6327 |
| `c1ccc2nc(N3CCOC(Cn4cncn4)C3)cnc2c1` (configuration not stated) | 0.763 |
| `Cc1nc(COC[C@H]2CCC[C@]23CN(CC2CC2)CCO3)cs1` | -2.568 |
| `COc1cccc(S(=O)(=O)CCNC2CCc3ncnn3C2)c1` (configuration not stated) | 2.707 |